{"source": "PubChem BioAssay AID1688", "about": "(National Center for Advancing Translational Sciences (NCATS), 2009)", "note": "Out of some 220,000 compounds screened, about 2,400 (1.1%) were called active. The shares of active, inactive and inconclusive entries below differ from those in the screen. The call rests on the fitted dose curve; in most records, active means well fitted inhibition curve with a large enough effect; inconclusive means small, poorly fitted or top-dose-only effect, or effect the other way; inactive means no such curve, though single readings can be large or run the other way. Potencies beside an inconclusive call are fits to weak or partial responses and may not hold up. On the % scale 0 is the no-effect control and ±100 the full control effect; potency means the concentration at half of the fitted maximal effect."}
{"test": "qHTS Multiplex Assay to Identify Dual Action Probes in a Cell Model of Huntington: Aggregate Formation (GFP); further: nearly all actives have a fitted effect of over 60% in size", "conditions": "PC12 HttQ103-GFP aggregates, Acumen cytometry, 40 h; activity change, negative = inhibition: at 46.1 µM (top of the series) unless noted", "summary_of_the_method": "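Ecdysone-promoter PC12 model expressing HTT exon 1 Q103 fused to GFP, induced by tebufenozide at 100 nM final. Compounds titrated; aggregates sized 1–25 µm scored on a 488 nm laser cytometer.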"}
{"compound": "O=C(Nc1ccc2c(c1)OCO2)N1CCCc2ccccc21", "Potency": "inconclusive: 2.82 µM [activator, single point]"}
{"compound": "CC(=O)c1ccc(OC(=O)c2ccc(Br)o2)cc1", "activity change, negative = inhibition": "inactive: -7.97%"}
{"compound": "CCOC(=O)n1c(=O)n(Cc2ccc(Cl)c(Cl)c2)c2ccccc21", "Potency": "inconclusive: 35.5 µM [inhibitor, single point]"}
{"compound": "Cc1ccc(C)c(NC(=S)c2ccccn2)c1", "Potency": "inconclusive: 3.55 µM [inhibitor, single point]"}
{"compound": "O=S(=O)(CCSc1ccccn1)c1nc2ccccc2s1", "Potency": "inconclusive: 35.5 µM [inhibitor, single point]"}
{"compound": "O=C(CSc1nnc(-c2ccco2)o1)NCC(=O)c1ccccc1", "Potency": "inconclusive: 0.562 µM [inhibitor, partial curve, poor fit]"}
{"compound": "COC(=O)c1cc(NC(=O)Cc2ccc(OC)cc2)cc(C(=O)OC)c1", "activity change, negative = inhibition": "inactive: 13.1%"}
{"compound": "Cc1cc(Cl)ccc1OCC(=O)n1cc(C(=O)c2cc(Cl)ccc2O)cn1", "Potency": "inconclusive: 12.6 µM [inhibitor, partial curve, poor fit]"}
{"compound": "CCCCn1nnnc1SCC(=O)Nc1ccc2c(c1)OCO2", "Potency": "inconclusive: 12.6 µM [activator, partial curve]"}
{"compound": "O=C1CSC(=NC(=O)c2ccccc2)N1", "Potency": "inconclusive: 1.41 µM [inhibitor, full curve, poor fit]"}
{"compound": "COc1ccccc1Nc1nc(NCCO)c2ccccc2n1", "Potency": "inconclusive: 1.26 µM [inhibitor, single point]"}
{"compound": "O=C(NC12CC3CC(CC(C3)C1)C2)N(Cc1ccccc1)Cc1ccncc1", "Potency": "inconclusive: 25.1 µM [inhibitor, single point]"}
{"compound": "S=C(Nc1cccc(Cl)c1Cl)Nn1cnnc1", "activity change, negative = inhibition": "inactive: 9.12%"}
{"compound": "O=[N+]([O-])c1cccnc1N1CCC(c2cc(-c3cccc(C(F)(F)F)c3)n[nH]2)CC1", "Potency": "inconclusive: 35.5 µM [inhibitor, single point]"}
{"compound": "COC(=O)c1ccc(C(=O)OC)c(NC(=S)N2CCN(C)CC2)c1", "activity change, negative = inhibition": "inactive: 3.52% [at 9.22 µM]"}
{"compound": "CCN1/C(=C/c2ccc3ccccc3[n+]2CC)C=Cc2ccccc21", "Potency": "active: 3.16 µM"}
{"compound": "NNC(=O)c1ccc(CSc2n[nH]c(=O)[nH]c2=O)cc1", "activity change, negative = inhibition": "inactive: 5.69% [at 9.22 µM]"}
{"compound": "COc1ccc(Oc2coc3c(CN(C)C)c(O)ccc3c2=O)cc1", "Potency": "inconclusive: 0.501 µM [inhibitor, full curve, poor fit]"}
{"compound": "O=c1[nH]c(NCCO)nc2c1C1(CCCC1)Cc1ccccc1-2", "activity change, negative = inhibition": "inactive: 15.7%"}
{"compound": "O=[N+]([O-])c1ccc(CSc2nnc(SCc3ccc(Cl)cc3)s2)cc1", "Potency": "inconclusive: 3.55 µM [inhibitor, partial curve]"}
{"compound": "COC(=O)CCC(NC(=O)c1cc(-c2ccc3c(c2)OCCO3)oc1C)C(=O)OC", "note": "(centres undefined)", "activity change, negative = inhibition": "inactive: 7.04%"}
{"compound": "N=C(N)N=Nc1c(O)[nH]c2ccc(Br)cc12", "Potency": "inconclusive: 1 µM [activator, full curve, poor fit]"}
{"compound": "CC(/C=N/NC(=O)c1cc(-c2cccnc2)nc2c1c(C)nn2-c1ccccc1)=C\\c1ccccc1", "Potency": "inconclusive: 3.16 µM [inhibitor, single point]"}
{"compound": "CC1CC(C)CN(C(=O)c2ccc3c(c2)N(Cc2ccccc2)CCS3)C1", "note": "(centres undefined)", "Potency": "inconclusive: 25.1 µM [inhibitor, single point]"}
{"compound": "CC(=O)c1c(C)[nH]c(C(=O)OCC(=O)Nc2ccc(Cl)cc2[N+](=O)[O-])c1C", "Potency": "inconclusive: 3.55 µM [inhibitor, full curve, poor fit]"}
{"compound": "C=CCn1c(N/N=C/c2ccc(O)cc2)nc2ccccc2c1=O", "activity change, negative = inhibition": "inactive: -19.6%"}
{"compound": "COc1ccc2cc3cc(C(=O)N4CCN(Cc5ccc6c(c5)OCO6)CC4)oc3nc2c1", "Potency": "inconclusive: 35.5 µM [inhibitor, single point]"}
{"compound": "Cc1ccc(S(=O)(=O)NC(CC(C)C)C(=O)N2CCC(C)CC2)cc1", "note": "(centres undefined)", "Potency": "inconclusive: 12.6 µM [inhibitor, single point]"}
{"compound": "C=CCn1c(SCC(=O)Nc2ccccc2-c2ccccc2)nc2cc(C(=O)O)ccc2c1=O", "activity change, negative = inhibition": "inactive: 10.2%"}
{"compound": "Cc1ccc(CNC(=O)CSc2nc3c(sc4ccccc43)c(=O)n2CCCN2CCCC2)cc1", "Potency": "inconclusive: 35.5 µM [inhibitor, single point]"}
{"compound": "CCn1c(C(=O)N2CCC(C(=O)NCCCSC3CCCCC3)CC2)cc2sccc21", "Potency": "inconclusive: 35.5 µM [inhibitor, single point]"}
{"compound": "COc1ccc(-c2nc3nc(SC)nn3cc2C)cc1F", "Potency": "inconclusive: 0.355 µM [activator, full curve, poor fit]"}
{"compound": "O=c1c2sc3nc(N4CCOCC4)c4c(c3c2nnn1Cc1ccccc1)CCCC4", "Potency": "inconclusive: 11.2 µM [inhibitor, partial curve]"}
{"compound": "Cn1sc(NC(=O)c2ccc(Cl)cc2)nc1=O", "Potency": "inconclusive: 35.5 µM [inhibitor, single point]"}
{"compound": "CCCN1Cc2cccc(C(=O)NC(C)c3cccs3)c2C1=O", "note": "(centres undefined)", "activity change, negative = inhibition": "inactive: -3.29%"}
{"compound": "Cn1c(Oc2ccccc2NCc2cc(Br)ccc2O)cc(=O)n(C)c1=O", "Potency": "inconclusive: 22.4 µM [inhibitor, partial curve]"}
{"compound": "COc1ccc(N2CCN(C(=O)c3ccc(Oc4ccc(C(F)(F)F)cn4)cc3)CC2)cc1", "Potency": "inconclusive: 11.2 µM [inhibitor, single point]"}
{"compound": "O=C1CCc2cc(S(=O)(=O)N3CCN(c4ccccc4F)CC3)ccc2N1", "Potency": "inconclusive: 15.8 µM [inhibitor, partial curve]"}
{"compound": "O=C(CSc1nn(-c2ccc(Cl)cc2)c(=S)s1)N1CCN(C(=O)c2ccco2)CC1", "Potency": "inconclusive: 35.5 µM [inhibitor, single point]"}
{"compound": "Cc1ccc(SCc2[nH]nc3c2C2(C(=O)Nc4ccc([N+](=O)[O-])cc42)C(C#N)=C(N)O3)cc1", "note": "(centres undefined)", "Potency": "inconclusive: 7.94 µM [activator, partial curve]"}
{"compound": "CCN(Cc1ccccc1)C(c1cccs1)c1nnnn1C1CCCCC1", "note": "(centres undefined)", "Potency": "inconclusive: 15.8 µM [inhibitor, single point]"}
{"compound": "O=C(O)c1ccc(NC(=O)c2cn(-c3ccccc3)nc2-c2ccc(Br)cc2)cc1", "Potency": "inconclusive: 7.94 µM [inhibitor, partial curve]"}
{"compound": "O=[N+]([O-])c1cc([N+](=O)[O-])c2cccnc2c1Oc1ccccc1O", "Potency": "inconclusive: 5.62 µM [activator, single point]"}
{"compound": "O=C(Nc1ccc(Cc2ccncc2)cc1)C1CCC(N2C(=O)C3C4C=CC(C5CC45)C3C2=O)CC1", "note": "(centres undefined)", "Potency": "inconclusive: 2.51 µM [inhibitor, partial curve]"}
{"compound": "CCOc1ccc(C2C(C(=O)C3CC3)N3C=C(C#N)C=CC3C2(C#N)C#N)cc1", "note": "(centres undefined)", "Potency": "inconclusive: 7.94 µM [activator, partial curve]"}
{"compound": "CCN(CC)c1ccc(NC(=O)c2cc(Cl)ccc2OC)cc1", "Potency": "inconclusive: 20 µM [inhibitor, single point]"}
{"compound": "CC1(C)CC(=O)c2sc(NC(=O)Cc3cccs3)nc2C1", "Potency": "inconclusive: 0.891 µM [inhibitor, full curve, poor fit]"}
{"compound": "CC1(C)NC(=O)N(CCCCOc2ccccc2[N+](=O)[O-])C1=O", "Potency": "inconclusive: 2.51 µM [activator, partial curve]"}
{"compound": "O=C(NCc1ccco1)c1ccccc1Br", "Potency": "inconclusive: 3.55 µM [activator, single point]"}
{"compound": "COC(=O)c1cc(=O)n(Cc2ccco2)c(=Nc2ccc(F)cc2)s1", "activity change, negative = inhibition": "inactive: -8.01% [at 9.22 µM]"}
{"compound": "CN(C)/C=C/C(=O)c1cccc(Oc2ncccn2)c1", "Potency": "inconclusive: 3.98 µM [activator, full curve, poor fit]"}
{"compound": "Cc1onc(-c2ccccc2)c1C(=O)N(Cc1ccco1)Cc1cccs1", "Potency": "inconclusive: 0.794 µM [activator, partial curve, poor fit]"}
{"compound": "O=c1[nH]c(CCC2CCCC2)nc2ccccc12", "activity change, negative = inhibition": "inactive: 12.7%"}
{"compound": "O=C(NC1CC1)C1CCCN1C(=O)NC1CCCCC1", "note": "(centres undefined)", "activity change, negative = inhibition": "inactive: -6.62%"}
{"compound": "Cc1nn(C)c(C)c1/C=N/NC(=O)c1csc2ccccc12", "activity change, negative = inhibition": "inactive: -6.59%"}
{"compound": "CCOc1ccccc1C(=O)NCC(=O)OCC(=O)NCCc1ccc(S(N)(=O)=O)cc1", "Potency": "inconclusive: 2.51 µM [activator, full curve, poor fit]"}
{"compound": "O=C(NCc1cccnc1)c1nn2cccnc2c1Cl", "activity change, negative = inhibition": "inactive: 0.551% [at 9.22 µM]"}
{"compound": "C=CCNC(=S)Nc1ccc(OC(F)F)c(Cl)c1", "Potency": "inconclusive: 11.2 µM [inhibitor, single point]"}
{"compound": "CC(C)NC(=O)c1ccccc1NC(=O)C(C)Oc1ccccc1", "note": "(centres undefined)", "Potency": "inconclusive: 0.891 µM [activator, partial curve]"}
{"compound": "CCCC(c1nnnn1Cc1ccco1)N1CCN(C(=O)c2ccco2)CC1", "note": "(centres undefined)", "activity change, negative = inhibition": "inactive: 7.82%"}
{"compound": "Cc1sc2nc(N3CCOCC3)[nH]c(=O)c2c1-c1ccccc1", "activity change, negative = inhibition": "inactive: 5.97%"}
{"compound": "CC(C)(C)C(=O)/C=c1\\[nH]c(=O)/c(=C\\c2ccc(F)cc2)s1", "activity change, negative = inhibition": "inactive: -10.5%"}
{"compound": "Cc1ccc(S(=O)(=O)N2c3ccccc3-c3c(ssc3=S)C2(C)C)cc1", "activity change, negative = inhibition": "inactive: -12.3%"}
{"compound": "NS(=O)(=O)c1cc2c(cc1Cl)N[C@@H](C(Cl)Cl)NS2(=O)=O", "Potency": "inconclusive: 12.6 µM [activator, single point]"}
{"compound": "COC(=O)c1cc(=O)n(-c2ccc(F)cc2)c(=Nc2ccc(F)cc2)s1", "Potency": "inconclusive: 35.5 µM [inhibitor, single point]"}
{"compound": "COC(=O)c1ccc(C#Cc2ccccc2)o1", "activity change, negative = inhibition": "inactive: 19.3% [at 9.22 µM]"}
{"compound": "Cc1ccc(NC(=O)Nc2cccs2)c(Cl)c1", "Potency": "inconclusive: 14.1 µM [inhibitor, single point]"}
{"compound": "O=C(Nc1ccc(Cn2cccn2)cc1)c1ccc(COc2ccc(Br)cc2)cc1", "activity change, negative = inhibition": "inactive: 17.5%"}
{"compound": "O/N=C1\\CC/C(=N\\O)c2nn(-c3ccccc3Cl)nc21", "Potency": "inconclusive: 35.5 µM [inhibitor, single point]"}
